This assay deals with L1210 leukemia ip in BDF1 mice, survival T/C. As to the kind of experiment: NCI In Vivo Anticancer Drug Screen. Data for tumor model L1210 Leukemia (intraperitoneal) in B6D2F1 (BDF1) mice. The conditions noted are these: T/C endpoint: mean survival time, higher T/C = longer survival.
The mark [1] stands for this setting: dose: 100.0 mg/kg/injection, schedule: Q01DX009 (ip), vehicle: saline with Tween-80.
The mark [2] stands for this setting: dose: 400.0 mg/kg/injection, schedule: Q04DX003 (ip), vehicle: saline with Tween-80.
[3] abbreviates: dose: 200.0 mg/kg/injection, schedule: Q01DX009 (ip), vehicle: saline.
Setting [4] is: dose: 300.0 mg/kg/injection, schedule: Q01DX001 (ip), vehicle: saline.
Setting [5] is: dose: 200.0 mg/kg/injection, schedule: Q01DX009 (ip), vehicle: Klucel (hydroxypropylcellulose) (HPC).
Setting [6] is: dose: 400.0 mg/kg/injection, schedule: Q01DX009 (ip), vehicle: Klucel (hydroxypropylcellulose) (HPC).
[7] abbreviates: dose: 200.0 mg/kg/injection, schedule: Q04DX003 (ip), vehicle: saline with Tween-80.
Setting [8] is: dose: 100.0 mg/kg/injection, schedule: Q01DX001 (ip), vehicle: saline.
The mark [9] stands for this setting: dose: 100.0 mg/kg/injection, schedule: Q01DX009 (ip), vehicle: saline.
The mark [10] stands for this setting: dose: 200.0 mg/kg/injection, schedule: Q01DX001 (ip), vehicle: saline.
[11] abbreviates: dose: 100.0 mg/kg/injection, schedule: Q04DX003 (ip), vehicle: saline with Tween-80.

Molecules are shown by their SMILES. The list does not hold the whole screen: it gathers tests that were run many times, whatever their T/C, doses with no T/C, and many T/C values between a quarter and a half above the control. Other doses and runs of a compound stand elsewhere. T/C is the treated group as % of the vehicle group. Some doses have a count of surviving animals in place of a T/C: the source holds a T/C of zero for them, seemingly a mark for toxic or unscored doses. Some survivor counts are full or nearly so, which does not show that the dose was tolerated: survival well below the control is almost never listed, so the zero probably covers shortened survival too. Counts of survivors are from the toxicity check (mostly the fifth day) where no day follows; animals may have died later. Schedules are NCI's codes, read here as Q, the interval in days (D) or hours (H), X, the number of doses. Some doses were run more than once; the results are listed from low to high. Some schedules carry Z or #; the key to these is not given. For survival time, this PubChem deposit counts one and a half times the control or more as active, and values a quarter to a half above the control carry no call in these data; other NCI protocols may use other cut-offs. Some T/C values carry the count of animals alive at the toxicity check (mostly the fifth day); without a count, all were alive then.

`CC1=NCCc2c1cc1c([nH]c3ccccc31)c2C`: the T/C reads like this: (dose: 65.0 mg/kg/injection, schedule: Q01DX009 (ip), vehicle: other) 132 % of control; (dose: 67.0 mg/kg/injection, schedule: Q01DX009 (ip), vehicle: saline with Tween-80) 134 % of control; under setting [1], 130 % of control; (dose: 140.0 mg/kg/injection, schedule: Q01DX009 (ip), vehicle: other) 141 % of control [5 of 6 alive]; under setting [2], 131 % of control. The survivor count runs as follows: (dose: 400.0 mg/kg/injection, schedule: Q04DX003 (ip), vehicle: acetone) 4 of 6; under setting [2], 5 of 6; (dose: 600.0 mg/kg/injection, schedule: Q04DX003 (ip), vehicle: saline with Tween-80) 0 of 6.

For `C(CC1CC1)OCOCCC1CC1`, the survivor count (dose: 400.0 mg/kg/injection, schedule: Q01DX001 (ip), vehicle: saline with Tween-80) is reported as 1 of 3.

As to `CCN(CC)CCSC(=O)C(O)(c1ccccc1)C1CCCC1` (stereo not drawn), the survivor count is 0 of 6 under setting [3]; 1 of 6 under setting [4]; 0 of 6 (dose: 400.0 mg/kg/injection, schedule: Q04DX003 (ip), vehicle: saline).

Consider `CCC[CH2][Sn]1([CH2]CCC)[O]C(=O)CCC(=O)[O]1`, for which the survivor count by setting is: (dose: 6.25 mg/kg/injection, schedule: Q01DX009 (ip), vehicle: Klucel (hydroxypropylcellulose) (HPC)) 0 of 3; (dose: 25.0 mg/kg/injection, schedule: Q01DX009 (ip), vehicle: Klucel (hydroxypropylcellulose) (HPC)) 0 of 3; (dose: 50.0 mg/kg/injection, schedule: Q01DX009 (ip), vehicle: Klucel (hydroxypropylcellulose) (HPC)) 0 of 3; (dose: 100.0 mg/kg/injection, schedule: Q01DX009 (ip), vehicle: Klucel (hydroxypropylcellulose) (HPC)) 0 of 3 and 0 of 6; under setting [5], 0 of 6; under setting [6], 0 of 6.

As for `CNC(=O)Oc1ccccc1NC(=O)OC`, the survivor count reads like this: under setting [7], 3 of 6; under setting [2], 0 of 6.

Turning to `O=C(CCl)c1ccc[nH]1`, the survivor count was 3 of 6 (dose: 150.0 mg/kg/injection, schedule: Q01DX001 (ip), vehicle: carboxymethylcellulose (CMC)); 0 of 6 (dose: 200.0 mg/kg/injection, schedule: Q01DX015 (ip), vehicle: carboxymethylcellulose (CMC)); 0 of 6 (dose: 300.0 mg/kg/injection, schedule: Q01DX001 (ip), vehicle: carboxymethylcellulose (CMC)); 0 of 6 (dose: 400.0 mg/kg/injection, schedule: Q01DX015 (ip), vehicle: carboxymethylcellulose (CMC)).

As for `CC1=CC(C)(N=[N+]=[N-])CC(C)(C)C1` (stereo not drawn), the survivor count under setting [4] is given as 0 of 6.

With `CCC[CH2][Sn]([S][Sn]([CH2]CCC)([c]1ccccc1)[c]1ccccc1)([c]1ccccc1)[c]1ccccc1`, for the setting “dose: 400.0 mg/kg/injection, schedule: Q04DX002 (ip), vehicle: saline with Tween-80”, the survivor count is listed as 1 of 3.

Take `Cc1[nH]nc(C(N)=O)c1N=NN(C)C`: the T/C was 138 % of control (dose: 19.0 mg/kg/injection, schedule: Q01DX009 (ip), vehicle: saline); 148 % of control (dose: 38.0 mg/kg/injection, schedule: Q01DX009 (ip), vehicle: saline); 131 % of control (dose: 50.0 mg/kg/injection, schedule: Q01DX001 (ip), vehicle: saline); 143 % of control under setting [8]; 137 % of control (dose: 135.0 mg/kg/injection, schedule: Q01DX001 (ip), vehicle: saline); 133 % of control under setting [10]. Moreover, under setting [4], the T/C was 130 [5 of 6 alive], 134 [4 of 6 alive], 137 % of control [4 of 6 alive]. The survivor count is, setting by setting: under setting [9], 6 of 6; under setting [3], 0 of 6; (dose: 400.0 mg/kg/injection, schedule: Q01DX009 (ip), vehicle: saline) 0 of 6; (dose: 500.0 mg/kg/injection, schedule: Q01DX001 (ip), vehicle: saline) 0 of 6.

As for `O=C(Nc1ccc(F)c(Cl)c1)Nc1ccc(Cl)c(C(F)(F)F)c1`, the survivor count (dose: 400.0 mg/kg/injection, schedule: Q01DX009 (ip), vehicle: saline with Tween-80) is reported as 0 of 6.

Take `Cc1cc(CCl)c(C)cc1CCl`: under setting [11], the survivor count was 0 of 3.

`ClCc1nc(-c2ccco2)no1`: the survivor count was 2 of 6 under setting [5] and 0 of 6 under setting [6].

On to `O=C(NCCCCCCCCCNC(=O)Nc1ccc(C2=NCCN2)cc1)Nc1ccc(C2=NCCN2)cc1`, for which the survivor count is reported as 4 of 6 (dose: 250.0 mg/kg/injection, schedule: Q01DX Z (ip), vehicle: carboxymethylcellulose (CMC)) and 0 of 6 (dose: 500.0 mg/kg/injection, schedule: Q01DX Z (ip), vehicle: carboxymethylcellulose (CMC)).

As to `CN=C(Nc1ccc(Cl)c(Cl)c1)C(C)C`, the survivor count by setting is: (dose: 100.0 mg/kg/injection, schedule: Q04DX002 (ip), vehicle: DMSO) 2 of 3 and 3 of 3; (dose: 200.0 mg/kg/injection, schedule: Q04DX002 (ip), vehicle: DMSO) 3 of 3; (dose: 400.0 mg/kg/injection, schedule: Q04DX002 (ip), vehicle: DMSO) 3 of 3.

As for `CCCCCCCCCCCCCCCCCCN1C(=O)C2C(C1=O)C1(Cl)C(Cl)=C(Cl)C2(Cl)C1(Cl)Cl` (stereo not drawn), the survivor count under setting [2] is 6 of 6.

`CC(C)(C)NC=O`: the survivor count reads like this: (dose: 150.0 mg/kg/injection, schedule: Q01DX009 (ip), vehicle: saline) 1 of 6; (dose: 300.0 mg/kg/injection, schedule: Q04DX003 (ip), vehicle: saline) 2 of 6.

Regarding `O=C(Nc1ccc(S(=O)(=O)O)cc1)c1ccc(C(=O)Nc2ccc(S(=O)(=O)O)cc2)cc1`, for the setting “dose: 15.0 mg/kg/injection, schedule: Q01DX Z (ip), vehicle: saline”, the survivor count is given as 2 of 6.

On to `N#CC1(O)C(Cl)(Cl)CCCC1(Cl)Cl`, for which the survivor count reads like this: (dose: 50.0 mg/kg/injection, schedule: Q01DX009 (ip), vehicle: saline with Tween-80) 0 of 3; under setting [1], 0 of 3; (dose: 200.0 mg/kg/injection, schedule: Q01DX009 (ip), vehicle: saline with Tween-80) 0 of 3.

For `Nc1nc(CCCCc2ccc(NC(=O)CBr)cc2)c(CCCCc2ccccc2)c(=O)[nH]1`, the survivor count by setting is: (dose: 50.0 mg/kg/injection, schedule: Q04DX003 (ip), vehicle: saline with Tween-80) 6 of 6; under setting [8], 2 of 6; under setting [11], 3 of 6; under setting [10], 0 of 4; under setting [7], 1 of 6; (dose: 400.0 mg/kg/injection, schedule: Q01DX001 (ip), vehicle: saline) 0 of 4. Moreover, under setting [2], the survivor count was 0 of 6.

`O=C(O)c1cccc(F)c1C(=O)c1ccc2ccccc2c1` (tested in a mixture with another compound): the survivor count (dose: 400.0 mg/kg/injection, schedule: Q04DX003 (ip), vehicle: Klucel (hydroxypropylcellulose) (HPC)) was 0 of 6.

Consider `CCC(OO)(C1=NC(C)(C)CO1)c1ccncc1Br` (stereo not drawn), for which, where the note is “dose: 400.0 mg/kg/injection, schedule: Q01DX001 (ip), vehicle: Klucel (hydroxypropylcellulose) (HPC)”, the survivor count is 1 of 6.

With `S=c1c2ccccc2nc2n1CCS2`, under setting [1], the survivor count was 6 of 6.

Regarding `CCCCCCCCc1cc[n+](C2=C([O-])c3ccccc3C(=O)C2=O)cc1`, the survivor count (dose: 50.0 mg/kg/injection, schedule: Q01DX009 (ip), vehicle: saline) is 0 of 6; the survivor count under setting [9] is 0 of 6; the survivor count under setting [3] is listed as 0 of 6.

Take `Nc1nc2c(c(=O)[nH]1)NC(CCNc1ccc(C(=O)NC(CCC(=O)O)C(=O)O)cc1)CN2` (stereo not drawn): the T/C (dose: 180.0 mg/kg/injection, schedule: Q01DX009 (ip), vehicle: other) was 127 % of control.

For `Cc1ccc(NC(=O)N(O)C2CCCCC2C#N)cc1` (stereo not drawn), the survivor count under setting [8] is recorded as 4 of 4.
